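Viability assay of Plasmodium falciparum sporozoites; the read-out is not stated. The concentration is filed as 10 mM, unlikely as a test dose, so the dose is not known. Higher reads as lower viability (inferred: compounds with an IC50 in retests scored well above the rest). Strong results were mostly tested again. Size under these conditions: about 34,000 compounds, about 280 of them at 50% or above in at least one test.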

Each number is a percent effect as filed.
The controls that fix the scale are not given in the record; negative values are as filed.
Compounds were drawn at random from those tested, without regard to their results.
Two or more numbers in one place are separate tests of the same structure; such repeats can differ widely.

{"compound": "CCCN1CCC(CC(=O)N[C@H](C(=O)O)c2cccc(F)c2F)CC1", "Percent Effect": 1.213}
{"compound": "COc1c(C)cnc(CN2CCC(N(C)C(=O)C(C)OC)CC2)c1C", "stereo": "centres undefined", "Percent Effect": 5.762}
{"compound": "O=C(O)C(F)(F)F.[H][C@@]12C[C@H](C(=O)N3CCCCO3)CN(CCc3ccccc3)[C@]1([H])CCO2", "Percent Effect": -6.171}
{"compound": "COc1cc(CCC(=O)N2CCC(c3cc4nccnc4[nH]3)CC2)on1", "Percent Effect": 10.45}
{"compound": "Cc1ccc(NCc2cnc3n2CCN(c2ncccn2)CC3)nn1", "Percent Effect": 17.11}
{"compound": "Fc1ccc(CNc2ccccc2Cn2cncn2)cc1", "Percent Effect": -11.9}
{"compound": "CNC(=O)c1cccc(C2CNCCN2C(=O)c2cccc(F)c2)c1.Cl", "stereo": "centres undefined", "Percent Effect": -4.253}
{"compound": "COc1ccccc1OCCC(=O)N1CCCC1Cn1cc(C)cn1", "stereo": "centres undefined", "Percent Effect": "-25.38 & -23.5 & -17.57"}
{"compound": "CCn1cc(CN2CCCN(C(=O)c3ccccc3C)CC2)cn1", "Percent Effect": 1.19}
{"compound": "CC(C)N1CCC(NCc2cccnc2N(C)Cc2ccccc2)CC1", "Percent Effect": -3.863}
{"compound": "O=C(NCCOc1ncc(Cl)cc1Cl)c1ccncc1F", "Percent Effect": -4.51}
{"compound": "[H][C@]12CCN[C@@]1([H])CN(C(=O)NCc1ccccc1)C2", "Percent Effect": 1.664}
{"compound": "O=C(O)C(F)(F)F.O=C(O)C(F)(F)F.[H][C@@]12CN(Cc3cccs3)C[C@]1([H])OCCN2c1ccc(C)nn1", "Percent Effect": -0.3567}
{"compound": "Cc1cc(C)n(C2CCCN(C(=O)c3cccc4[nH]ncc34)C2)n1", "stereo": "centres undefined", "Percent Effect": -5.637}
{"compound": "CCS(=O)(=O)N1CCC2(CCC2NC(=O)c2ccn(C)c2)CC1", "stereo": "centres undefined", "Percent Effect": -9.829}
{"compound": "O=C1CC(N(C(=O)c2ccc(F)c(C(F)(F)F)c2)C2CC2)C(=O)N1", "stereo": "centres undefined", "Percent Effect": 4.305}
{"compound": "CCOC(=O)c1ccc(S(=O)(=O)NCc2cccnc2N(C)C)cc1", "Percent Effect": 20.41}
{"compound": "CCC1CN(C(=O)c2ccccc2N2CCCC2)CCN1C(C)C", "stereo": "centres undefined", "Percent Effect": 20.27}
{"compound": "Cl.Cn1cccc1C(=O)N1CCc2c(CNS(C)(=O)=O)cncc2C1", "Percent Effect": 15.01}
{"compound": "COCCn1cc(CC(=O)Nc2nc3c(s2)CCC3)c2ccccc21", "Percent Effect": "1.19 & -4.41 & -3.323"}
{"compound": "O=S(=O)(CC1CCCCO1)Nc1cnn(CC(F)F)c1", "stereo": "centres undefined", "Percent Effect": -2.216}
{"compound": "O=C(O)C(F)(F)F.[H][C@@]12COC[C@]1([H])[C@@H](OC)CN2Cc1cccc(C#N)c1", "Percent Effect": -3.571}
{"compound": "CS(=O)(=O)N1CCN(C(=O)CCC2CCCO2)CC1", "stereo": "centres undefined", "Percent Effect": -6.326}
{"compound": "Cn1cc(C[C@H]2[C@@H](O)CCN2C(=O)c2ccc[nH]2)cn1", "Percent Effect": -1.476}
{"compound": "CSc1nnc(C2CCN(C(=O)N3CCOCC3)CC2)n1C(C)C", "Percent Effect": -1.942}
{"compound": "O=C(Cc1ccccn1)N1CCC2(CC1)CN(c1ncccn1)CCO2.O=C(O)C(F)(F)F.O=C(O)C(F)(F)F", "Percent Effect": 5.816}
{"compound": "O=C(CCS(=O)(=O)C1CCCC1)N1CCCC(n2ccnc2)C1", "stereo": "centres undefined", "Percent Effect": -7.436}
{"compound": "O=C(O)C(F)(F)F.[H][C@@]12CCN(Cc3cc(C)on3)C[C@]1(C(=O)NCCOC)CCO2", "Percent Effect": -4.875}
{"compound": "Cc1cc2nc(-c3ccccc3)cc(NCC3CCCOC3)n2n1", "stereo": "centres undefined", "Percent Effect": "-18.54 & -17.66"}
{"compound": "CC(C(N)=O)n1nc(-c2cccs2)cc(N)c1=O", "stereo": "centres undefined", "Percent Effect": 5.888}
{"compound": "COc1cccc2c1OCC(C(=O)N1CCN(CCS(C)(=O)=O)CC1)C2", "stereo": "centres undefined", "Percent Effect": -7.456}
{"compound": "CCn1nc(C)c(NC(=O)C(C)C)c1C", "Percent Effect": -20.02}
{"compound": "CC(C)N1CCC(CC(=O)N2CCCCC2CCn2cccn2)CC1", "stereo": "centres undefined", "Percent Effect": "-13.7 & -16.31"}
{"compound": "c1cc(CNCC2CNc3ccnn3C2)cc(N2CCOCC2)n1", "stereo": "centres undefined", "Percent Effect": 6.321}
{"compound": "CN(Cc1nc(-c2cccs2)no1)Cc1nc2c(s1)CCCC2", "Percent Effect": "3.047 & -18.44 & -16.48"}
{"compound": "COCCNC(=O)Nc1cc2c(cc1SC)OCCO2", "Percent Effect": "98.06 & 101.8 & 101.9"}
{"compound": "CN1CC(=O)N(c2cccc(F)c2)CC12CCN(CC1CC1)C2.O=C(O)C(F)(F)F.O=C(O)C(F)(F)F", "stereo": "centres undefined", "Percent Effect": -25.37}
{"compound": "Cc1cnn(CC2CCCN2CC(=O)Nc2cc(C(C)C)no2)c1", "stereo": "centres undefined", "Percent Effect": 6.887}
{"compound": "CC(C)(CC(=O)Nc1cccc(Oc2ccccn2)c1)C(=O)O", "Percent Effect": -2.941}
{"compound": "Cc1cc(C)n(CC2CCCN2CCCS(=O)(=O)N(C)C)n1", "stereo": "centres undefined", "Percent Effect": -1.294}
{"compound": "CN(C)CCN1CCOCC12CCN(C(=O)C1CC1)CC2.O=C(O)C(F)(F)F.O=C(O)C(F)(F)F", "Percent Effect": -86.85}
{"compound": "Cn1c(CN2CCCC2)nnc1C1CCCN(C(=O)N2CCOCC2)C1", "stereo": "centres undefined", "Percent Effect": -6.725}

Data taken from ChEMBL document CHEMBL3988442, “University of Dundee, Small-Polar-MMV Screening Library” (2021).